Some of these results come from one statement about several compounds together. At least one compound was matched to its structure with a doubt left.
What was measured:
Caspase-6 = target: T1, Caspase-6 (Homo sapiens, UniProt P55212); assay: Caspase-6 progress curve inhibition assay; settings: second-order rate constant, Ac-DEVD-AMC substrate, Pipes buffer pH 7.2
T1 sequence (P55212 24-179 limits assumed): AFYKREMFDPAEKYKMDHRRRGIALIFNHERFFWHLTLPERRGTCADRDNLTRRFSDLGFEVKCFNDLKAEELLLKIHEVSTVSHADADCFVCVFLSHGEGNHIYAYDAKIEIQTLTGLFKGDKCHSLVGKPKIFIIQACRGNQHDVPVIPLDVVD
T1 sequence (P55212 194-293 limits assumed): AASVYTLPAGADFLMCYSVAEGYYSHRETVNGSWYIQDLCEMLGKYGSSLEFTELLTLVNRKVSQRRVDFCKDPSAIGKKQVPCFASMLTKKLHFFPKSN

Chains of the proteins cited; added tags and fusions are not shown. Residues count along the entry.
UniProt Q14790, 385-479 limits assumed: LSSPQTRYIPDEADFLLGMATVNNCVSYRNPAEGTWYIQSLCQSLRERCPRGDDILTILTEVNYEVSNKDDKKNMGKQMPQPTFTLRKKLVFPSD
UniProt Q14790, 217-374 limits assumed: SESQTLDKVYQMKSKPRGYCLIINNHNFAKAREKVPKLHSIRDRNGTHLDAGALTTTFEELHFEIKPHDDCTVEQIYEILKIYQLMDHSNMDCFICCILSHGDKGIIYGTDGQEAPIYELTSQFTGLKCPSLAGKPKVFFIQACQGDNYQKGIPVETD

Caspase-8 = Caspase-8 (Homo sapiens, UniProt Q14790); assay: Caspase-8 progress curve inhibition assay; settings: second-order rate constant, Ac-DEVD-AMC substrate, Pipes buffer pH 7.2
[1] = listed as Cbz-Leu-Glu-Thr-AAsp-CH═CH—COOBzl
[2] = listed as Cbz-Leu-Glu-Thr-AAsp-CH═CH—CON(CH3)Bzl

| k2 Caspase-6 (Caspase-6; [1]) | k2 Caspase-8 (Caspase-8; [1]) | k2 Caspase-6 (Caspase-6; [2]) | k2 Caspase-8 (Caspase-8; [2]) | SMILES |
| --- | --- | --- | --- | --- |
| up to 47,600 M^−1s^−1 | ≤ 237,000 M^−1s^−1 |  |  | CC(C)C[C@H](NC(=O)OCc1ccccc1)C(=O)N[C@@H](CCC(=O)O)C(=O)N[C@H](C(=O)NN(CC(=O)O)C(=O)/C=C/C(=O)OCc1ccccc1)[C@@H](C)O (relative stereo) [Cbz-Leu-Glu-Thr-AAsp-CH═CH—COOCH2Ph, N^1-trans-(3-Benzyloxycarbonylpropenoyl)-N^2—(N-benzyloxycarbonylleucylglutamylthreonyl)-N^1-carboxymethylhydrazine] |
|  |  | up to 47,600 M^−1s^−1 | ≤ 237,000 M^−1s^−1 | CC(C)C[C@H](NC(=O)OCc1ccccc1)C(=O)N[C@@H](CCC(=O)O)C(=O)N[C@H](C(=O)NN(CC(=O)O)C(=O)/C=C/C(=O)N(C)Cc1ccccc1)[C@@H](C)O (relative stereo) [Cbz-Leu-Glu-Thr-AAsp-CH═CH—CON(CH3)CH2Ph, N^1-trans-(3-Benzylmethylcarbamoylpropenoyl)-N^2—(N-benzyloxycarbonylleucylglutamylthreonyl)-N^1-carboxylmethylhydrazine] |

Source: US7482379B2, “Propenoyl hydrazides” (priority 2004, dated 2009)
